This passage reports AC50 and outcome results from PubChem BioAssay (EPA / NIEHS).

Sequences of proteins named here, by UniProt entry; tags and fusion partners are left off.
UniProt P24462, whole entry, looked up: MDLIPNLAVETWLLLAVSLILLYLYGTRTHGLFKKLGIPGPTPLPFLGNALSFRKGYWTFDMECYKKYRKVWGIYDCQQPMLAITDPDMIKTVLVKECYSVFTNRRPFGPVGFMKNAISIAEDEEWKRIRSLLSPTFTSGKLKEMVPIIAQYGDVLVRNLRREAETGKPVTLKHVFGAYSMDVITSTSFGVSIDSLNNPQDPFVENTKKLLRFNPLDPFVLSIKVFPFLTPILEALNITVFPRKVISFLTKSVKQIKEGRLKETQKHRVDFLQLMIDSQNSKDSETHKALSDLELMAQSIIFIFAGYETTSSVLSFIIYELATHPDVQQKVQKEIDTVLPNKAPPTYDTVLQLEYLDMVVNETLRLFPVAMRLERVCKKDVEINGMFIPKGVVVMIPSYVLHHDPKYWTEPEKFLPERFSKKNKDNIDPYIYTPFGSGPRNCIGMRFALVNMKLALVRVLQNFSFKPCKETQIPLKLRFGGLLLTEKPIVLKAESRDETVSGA

Structures are written as SMILES. For part of these data: Most of the hits are listed elsewhere, so they are rarer here than in the full data. Only a part is listed here, and it is no random draw. Active and inactive are the calls of the source. The calls were made as follows: active = hit-call score of the fitted dose curve at least 0.9, where 1 is the maximum; inactive = score below 0.9.

Common to all, as to conditions: actives raise or lower the signal; mRNA level, 48 h
Read-out in experiment [1]: Cytochrome P450 (CYP1A1), CYP1A1 (gene 1543)
The experiment can be described thus: LTEA_HepaRG_CYP1A1: Life Technologies and Expression Analysis (LTEA) Assay for Cytochrome P450 (CYP1A1) using HepaRG (AID 2283454). An outline of the steps: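 Induction of CYP1A1 mRNA in a human hepatic cell line was measured 48 h after dosing, with 1 mM phenobarbital as induction positive control and 0.5% DMSO vehicle as baseline for bidirectional curve fitting.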

Read-out in experiment [2]: Cytochrome P450 (CYP24A1), CYP24A1 (gene 1591)
Kind of experiment: LTEA_HepaRG_CYP24A1: Life Technologies and Expression Analysis (LTEA) Assay for Cytochrome P450 (CYP24A1) using HepaRG (AID 2283478). The procedure, abridged: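 Human liver HepaRG cultures receive each chemical for 48 h across an eight-point half-log series topping at 100 uM in 0.5% DMSO. Induction or suppression of CYP24A1 mRNA is scored relative to vehicle after housekeeping-gene normalization.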

Read-out in experiment [3]: Cytochrome P450 (CYP1A2), CYP1A2 (gene 1544)
The experiment can be described thus: LTEA_HepaRG_CYP1A2: Life Technologies and Expression Analysis (LTEA) Assay for Cytochrome P450 (CYP1A2) using HepaRG (AID 2283479).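 Also: TaqMan qRT-PCR transcript level normalized to ACTB GAPDH and POLR2A.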 An outline of the steps: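 Assesses CYP1A2 mRNA in human HepaRG liver cells after 48 h chemical exposure at up to 100 uM. Values come from qRT-PCR with bidirectional curve fitting relative to DMSO.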

Read-out in experiment [4]: Cytochrome P450 (CYP2B6), CYP2B6 (gene 1555)
The experiment can be described thus: LTEA_HepaRG_CYP2B6: Life Technologies and Expression Analysis (LTEA) Assay for Cytochrome P450 (CYP2B6) using HepaRG (AID 2283481). The procedure, abridged: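 Using 48 h treatment of HepaRG cells in serum-free induction medium, concentrations spanned half-log steps from 100 uM in 0.5% DMSO vehicle. CYP2B6 mRNA induction or loss is scored by qRT-PCR against DMSO.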

Read-out in experiment [5]: Cytochrome P450 3A7 (Homo sapiens) (UniProt P24462)
The experiment can be described thus: LTEA_HepaRG_CYP3A7: Life Technologies and Expression Analysis (LTEA) Assay for CYP3A7 using HepaRG (AID 2283492). An outline of the steps:
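Cells were thawed, plated, cultured 48 h, then treated for a further 48 h with chemicals (eight-point half-log series from 100 uM, 0.5% DMSO). RNA was isolated and CYP3A7 expression quantified by qRT-PCR normalised to ACTB, GAPDH and POLR2A.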

Read-out in experiment [6]: CYP3A5 (gene 1577)
The experiment can be described thus: LTEA_HepaRG_CYP3A5: Life Technologies and Expression Analysis (LTEA) Assay for CYP3A5 using HepaRG (AID 2283493). An outline of the steps: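 Human HepaRG hepatic cells receive 48 h chemical treatment at eight concentrations (half-log steps from 100 uM) in 0.5% DMSO. Expression of CYP3A5 is quantified by Fluidigm qRT-PCR and normalized to three reference genes.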

The term AC50 denotes the concentration at which the activity in the assay is half-maximal. Regarding `CS(=O)(=O)c1ccc([C@@H](C[C@H]2CCC(=O)C2)C(=O)Nc2cnccn2)cc1Cl`, the AC50 in experiment [1] was active: 14.7 µM; in experiment [2], active: 4 µM; in experiment [3], active: 1.18 µM; in experiment [4] it was active: 1.45 µM; in experiment [5] it was active: 20.2 µM. Further, the result in experiment [6] was inactive.
